In article PMC7260207 one finds binding data, which are given here for 1 molecule.

By UniProt entry, the sequences of proteins in these tests, tags left out. Residues count along the entry.
UniProt Q16620, residues 32-822: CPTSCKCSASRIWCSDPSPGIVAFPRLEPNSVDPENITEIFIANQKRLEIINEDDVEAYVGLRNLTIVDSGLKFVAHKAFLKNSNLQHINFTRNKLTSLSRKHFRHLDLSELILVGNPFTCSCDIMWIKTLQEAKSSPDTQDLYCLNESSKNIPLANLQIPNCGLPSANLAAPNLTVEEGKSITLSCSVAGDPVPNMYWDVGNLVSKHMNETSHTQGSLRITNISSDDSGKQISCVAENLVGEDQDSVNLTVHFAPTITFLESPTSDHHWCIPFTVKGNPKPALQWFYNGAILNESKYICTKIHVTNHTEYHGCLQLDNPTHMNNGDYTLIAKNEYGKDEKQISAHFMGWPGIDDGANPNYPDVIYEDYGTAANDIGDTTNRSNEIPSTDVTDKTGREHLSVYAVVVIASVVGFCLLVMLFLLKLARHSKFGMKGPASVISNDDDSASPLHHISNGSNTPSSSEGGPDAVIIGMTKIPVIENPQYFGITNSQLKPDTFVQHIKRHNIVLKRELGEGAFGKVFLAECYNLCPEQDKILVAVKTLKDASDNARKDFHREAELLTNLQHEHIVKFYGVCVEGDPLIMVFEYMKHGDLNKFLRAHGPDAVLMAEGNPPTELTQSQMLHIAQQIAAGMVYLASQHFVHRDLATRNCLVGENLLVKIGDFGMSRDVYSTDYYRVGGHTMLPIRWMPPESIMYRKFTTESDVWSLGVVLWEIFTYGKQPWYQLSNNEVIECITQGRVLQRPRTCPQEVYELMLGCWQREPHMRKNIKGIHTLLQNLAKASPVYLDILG

Results are given in words; binding and its absence hold for the method and conditions named. Binding seen in cells or lysates may run through a third protein. Some results given as binding are weak or reduced against the parent protein; the word gives no strength.

The assay concerns the target tropomyosin receptor kinase B (TrkB) (human (endogenous in FT240)) (UniProt Q16620). The assay can be described thus: co-IP; FTE cells (FT240) expressing GFP or mutant p53; SureBeads (Bio-Rad) incubated with 1 µg antibody for 10 min at room temperature; which partner was precipitated is not told in the main text.

B1: Golgi Associated Gamma Adaptin Ear Containing ARF Binding Protein 3 (GGA3) (protein, UniProt Q9NZ52 1-723)
chain: MAEAEGESLESWLNKATNPSNRQEDWEYIIGFCDQINKELEGPQIAVRLLAHKIQSPQEWEALQALTVLEACMKNCGRRFHNEVGKFRFLNELIKVVSPKYLGDRVSEKVKTKVIELLYSWTMALPEEAKIKDAYHMLKRQGIVQSDPPIPVDRTLIPSPPPRPKNPVFDDEEKSKLLAKLLKSKNPDDLQEANKLIKSMVKEDEARIQKVTKRLHTLEEVNNNVRLLSEMLLHYSQEDSSDGDRELMKELFDQCENKRRTLFKLASETEDNDNSLGDILQASDNLSRVINSYKTIIEGQVINGEVATLTLPDSEGNSQCSNQGTLIDLAELDTTNSLSSVLAPAPTPPSSGIPILPPPPQASGPPRSRSSSQAEATLGPSSTSNALSWLDEELLCLGLADPAPNVPPKESAGNSQWHLLQREQSDLDFFSPRPGTAACGASDAPLLQPSAPSSSSSQAPLPPPFPAPVVPASVPAPSAGSSLFSTGVAPALAPKVEPAVPGHHGLALGNSALHHLDALDQLLEEAKVTSGLVKPTTSPLIPTTTPARPLLPFSTGPGSPLFQPLSFQSQGSPPKGPELSLASIHVPLESIKPSSALPVTAYDKNGFRILFHFAKECPPGRPDVLVVVVSMLNTAPLPVKSIVLQAAVPKSMKVKLQPPSGTELSPFSPIQPPAAITQVMLLANPLKEKVRLRYKLTFALGEQLSTEVGEVDQFPPVEQWGNL
Turning to B1, the binding result is “binds”.
